PMC10602884, “Distinct RPA functions promote eukaryotic DNA replication initiation and elongation”
Results are given in words; binding and its absence hold for the method and conditions named. Some entries that bind do so weakly or less than the wild type.

Sequences of proteins named here, by UniProt entry; tags and fusion partners are left off. A change or cut given only in a name is not applied to a line headed by its entry. Residues count along the entry.
UniProt P26754: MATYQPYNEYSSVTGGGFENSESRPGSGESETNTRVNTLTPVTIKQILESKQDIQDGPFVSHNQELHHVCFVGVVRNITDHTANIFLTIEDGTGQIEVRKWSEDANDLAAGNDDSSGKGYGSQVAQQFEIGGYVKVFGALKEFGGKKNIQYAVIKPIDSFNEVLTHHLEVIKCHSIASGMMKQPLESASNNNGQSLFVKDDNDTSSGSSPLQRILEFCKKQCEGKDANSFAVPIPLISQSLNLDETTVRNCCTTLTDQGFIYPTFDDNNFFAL
3xFlag-Rfa2^ΔWH: residues 1-202 of P26754
UniProt P22336: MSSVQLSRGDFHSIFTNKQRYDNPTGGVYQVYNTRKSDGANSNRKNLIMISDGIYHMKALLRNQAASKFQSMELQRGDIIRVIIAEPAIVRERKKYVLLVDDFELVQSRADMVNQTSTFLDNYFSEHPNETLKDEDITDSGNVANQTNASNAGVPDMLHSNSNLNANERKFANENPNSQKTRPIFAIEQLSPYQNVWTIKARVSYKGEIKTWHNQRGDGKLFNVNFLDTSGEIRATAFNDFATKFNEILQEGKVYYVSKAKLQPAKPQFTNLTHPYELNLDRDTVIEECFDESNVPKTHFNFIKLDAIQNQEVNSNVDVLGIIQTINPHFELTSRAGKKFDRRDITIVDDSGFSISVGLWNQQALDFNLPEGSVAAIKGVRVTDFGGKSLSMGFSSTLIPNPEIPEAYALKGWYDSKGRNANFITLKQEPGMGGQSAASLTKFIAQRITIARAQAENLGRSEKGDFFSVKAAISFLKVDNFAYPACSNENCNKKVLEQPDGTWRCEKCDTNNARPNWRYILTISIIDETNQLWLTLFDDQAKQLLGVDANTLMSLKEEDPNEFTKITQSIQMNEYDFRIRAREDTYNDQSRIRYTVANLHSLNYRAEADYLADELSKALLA
UniProt P26755: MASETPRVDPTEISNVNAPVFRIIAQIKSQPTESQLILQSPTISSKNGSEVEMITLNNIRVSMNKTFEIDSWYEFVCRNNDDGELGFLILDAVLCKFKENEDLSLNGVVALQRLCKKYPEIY

Legend:
[1] = biological target: 3xFlag-Rfa2^ΔWH (S. cerevisiae) (UniProt P26754); test: co-purification; subunits co-expressed in yeast (yAP18); calmodulin column, then Flag affinity step, then heparin column
[2] = biological target: 3xFlag-Rfa2^ΔWH (S. cerevisiae) (UniProt P26754); test: co-purification + SEC; subunits co-expressed in yeast (yAP17); lysate bound to Flag resin through 3xFlag-Rfa2^ΔWH in Buffer C with 100 mM NaCl, eluted with 3xFlag peptide, then S200 Increase 10/300 in Buffer C with 200 mM NaCl and 1 mM EDTA
[3] = biological target: CBP-Rfa1^ΔOB-F (S. cerevisiae) (UniProt P22336); test: co-purification; subunits co-expressed in yeast; lysate in Buffer C with 500 mM NaCl plus 2 mM CaCl2 bound to a calmodulin-affinity column through CBP-Rfa1, eluted with EDTA/EGTA, then HiTrap Heparin with a gradient from 50 mM to 1 M NaCl
[4] = biological target: CBP-Rfa1 (largest subunit of replication protein A) (S. cerevisiae) (UniProt P22336); test: as above

Substance	binding [1]	binding [2]	binding [3]	binding [4]
Rfa3 (smallest subunit of replication protein A), made in yeast (from UniProt P26755 1-122)	binds	binds	binds	binds
CBP-Rfa1^ΔOB-F (from UniProt P22336 131-621) (domain or fragment)	binds			
Rfa2 (middle subunit of replication protein A) (from UniProt P26754 1-273)			binds	binds
CBP-Rfa1 (largest subunit of replication protein A) (from UniProt P22336 1-621)		binds		
